Data: EP1323715B1, “Inhibitors of cholesterol esterase” (The University of New Mexico, priority 1997, dated 1998)
At least one structure is not confirmed: it was looked up by name or label, or the drawing left a doubt.

Molecular target: T1, cholesterol esterase (CE) (Homo sapiens, UniProt P19835)
T1 sequence (P19835 21-753): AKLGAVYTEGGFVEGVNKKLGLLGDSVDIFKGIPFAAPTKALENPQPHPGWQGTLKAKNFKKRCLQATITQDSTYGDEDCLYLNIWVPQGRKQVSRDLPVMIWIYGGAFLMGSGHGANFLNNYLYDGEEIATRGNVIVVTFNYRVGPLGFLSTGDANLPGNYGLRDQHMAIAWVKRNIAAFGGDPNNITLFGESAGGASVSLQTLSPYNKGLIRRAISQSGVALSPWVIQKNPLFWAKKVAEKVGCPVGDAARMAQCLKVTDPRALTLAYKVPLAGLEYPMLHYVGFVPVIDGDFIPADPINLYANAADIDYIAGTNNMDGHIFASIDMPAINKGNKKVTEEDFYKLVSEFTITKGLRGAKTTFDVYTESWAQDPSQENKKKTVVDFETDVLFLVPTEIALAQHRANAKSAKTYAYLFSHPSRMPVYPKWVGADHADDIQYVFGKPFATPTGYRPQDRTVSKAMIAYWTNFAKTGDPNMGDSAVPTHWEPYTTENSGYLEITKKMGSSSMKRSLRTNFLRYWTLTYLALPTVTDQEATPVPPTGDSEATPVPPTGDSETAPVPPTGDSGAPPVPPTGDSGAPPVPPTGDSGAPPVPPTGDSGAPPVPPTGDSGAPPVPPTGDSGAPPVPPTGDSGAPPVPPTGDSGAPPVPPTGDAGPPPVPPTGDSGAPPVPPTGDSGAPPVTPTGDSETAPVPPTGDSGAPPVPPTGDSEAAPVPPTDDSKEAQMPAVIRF
Experiment: Kinetic inhibition studies of CE with substrate p-nitrophenylbutyrate, Dixon plots

In the case of `O=c1oc(Cl)ccc1CCC1CCCCC1` [Example 3], the “inhibition of CE (in words)” value (kinetic inhibition studies) is reported as “potent inhibitors of CE” and the type of inhibition (plot of I/V v [I] at two fixed concentrations of p-nitrophenylbutyrate intersects above the x-axis) is reported as “competitive inhibition”.
